Data as given in the supplement of paper PMC10849652.
The other results are listed elsewhere or left out.

Protein sequences, listed by entry. Tags and fused reporters are not part of them. Lines headed by an entry give the natural chain unless they say otherwise; changes in a name come on top.
UniProt Q8TD16, whole entry, looked up: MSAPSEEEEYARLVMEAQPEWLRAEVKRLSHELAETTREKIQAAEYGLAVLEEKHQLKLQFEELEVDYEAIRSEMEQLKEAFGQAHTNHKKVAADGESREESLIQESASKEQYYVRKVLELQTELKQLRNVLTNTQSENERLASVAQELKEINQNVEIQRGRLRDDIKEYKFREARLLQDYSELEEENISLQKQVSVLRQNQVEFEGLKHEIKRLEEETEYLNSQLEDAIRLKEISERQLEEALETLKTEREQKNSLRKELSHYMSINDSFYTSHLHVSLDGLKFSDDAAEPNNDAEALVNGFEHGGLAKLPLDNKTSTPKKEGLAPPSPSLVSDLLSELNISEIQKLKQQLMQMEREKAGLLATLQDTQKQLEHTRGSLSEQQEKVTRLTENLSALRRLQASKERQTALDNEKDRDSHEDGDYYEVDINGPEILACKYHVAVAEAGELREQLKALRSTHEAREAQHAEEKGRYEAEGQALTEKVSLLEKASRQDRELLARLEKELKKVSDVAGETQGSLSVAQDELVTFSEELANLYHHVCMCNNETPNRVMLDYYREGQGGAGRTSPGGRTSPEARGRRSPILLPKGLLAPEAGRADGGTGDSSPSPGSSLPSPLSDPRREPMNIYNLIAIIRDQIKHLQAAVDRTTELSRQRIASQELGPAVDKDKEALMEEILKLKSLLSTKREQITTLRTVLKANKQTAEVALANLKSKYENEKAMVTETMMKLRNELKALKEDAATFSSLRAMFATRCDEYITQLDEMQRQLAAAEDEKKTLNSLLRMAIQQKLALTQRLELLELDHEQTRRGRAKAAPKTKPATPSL
UniProt O95816: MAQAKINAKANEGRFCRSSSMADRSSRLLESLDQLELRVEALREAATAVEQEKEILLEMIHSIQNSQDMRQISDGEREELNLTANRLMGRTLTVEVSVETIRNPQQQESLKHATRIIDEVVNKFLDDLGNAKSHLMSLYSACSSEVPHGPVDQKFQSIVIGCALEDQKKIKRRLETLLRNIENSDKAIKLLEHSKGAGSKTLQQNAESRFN
UniProt Q96GS4: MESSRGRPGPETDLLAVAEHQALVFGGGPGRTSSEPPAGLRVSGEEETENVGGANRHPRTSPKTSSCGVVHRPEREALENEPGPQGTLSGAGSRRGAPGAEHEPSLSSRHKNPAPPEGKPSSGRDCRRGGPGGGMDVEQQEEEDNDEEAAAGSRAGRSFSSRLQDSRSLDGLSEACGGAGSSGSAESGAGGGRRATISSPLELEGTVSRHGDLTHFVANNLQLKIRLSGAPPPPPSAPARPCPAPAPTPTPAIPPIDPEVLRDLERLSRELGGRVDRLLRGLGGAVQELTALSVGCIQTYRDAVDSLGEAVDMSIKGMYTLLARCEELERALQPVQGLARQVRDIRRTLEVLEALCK
UniProt Q16611: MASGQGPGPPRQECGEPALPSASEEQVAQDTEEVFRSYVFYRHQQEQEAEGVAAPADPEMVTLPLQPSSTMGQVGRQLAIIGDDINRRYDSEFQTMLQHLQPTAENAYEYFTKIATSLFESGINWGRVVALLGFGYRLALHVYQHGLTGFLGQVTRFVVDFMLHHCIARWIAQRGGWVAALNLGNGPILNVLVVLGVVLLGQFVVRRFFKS
UniProt Q6Y288: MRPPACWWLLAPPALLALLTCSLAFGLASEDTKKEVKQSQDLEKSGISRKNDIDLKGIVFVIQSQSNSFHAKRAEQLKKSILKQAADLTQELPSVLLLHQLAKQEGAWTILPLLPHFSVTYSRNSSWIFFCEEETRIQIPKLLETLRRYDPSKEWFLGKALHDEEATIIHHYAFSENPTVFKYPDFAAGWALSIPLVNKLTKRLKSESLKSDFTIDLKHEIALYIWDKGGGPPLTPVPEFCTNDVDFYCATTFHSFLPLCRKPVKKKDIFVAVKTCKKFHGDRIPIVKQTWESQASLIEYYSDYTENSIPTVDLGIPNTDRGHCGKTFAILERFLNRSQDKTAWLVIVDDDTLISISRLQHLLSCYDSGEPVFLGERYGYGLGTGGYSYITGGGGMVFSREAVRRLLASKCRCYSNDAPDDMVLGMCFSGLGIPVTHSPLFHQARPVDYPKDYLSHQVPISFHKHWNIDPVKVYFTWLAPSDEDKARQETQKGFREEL
UniProt O95999: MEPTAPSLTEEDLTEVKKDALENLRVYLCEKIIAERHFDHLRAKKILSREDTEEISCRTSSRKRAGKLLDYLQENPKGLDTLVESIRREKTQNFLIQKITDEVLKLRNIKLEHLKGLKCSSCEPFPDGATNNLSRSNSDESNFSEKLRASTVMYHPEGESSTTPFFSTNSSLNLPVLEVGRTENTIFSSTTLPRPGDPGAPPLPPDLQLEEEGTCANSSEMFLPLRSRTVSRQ
UniProt Q92843: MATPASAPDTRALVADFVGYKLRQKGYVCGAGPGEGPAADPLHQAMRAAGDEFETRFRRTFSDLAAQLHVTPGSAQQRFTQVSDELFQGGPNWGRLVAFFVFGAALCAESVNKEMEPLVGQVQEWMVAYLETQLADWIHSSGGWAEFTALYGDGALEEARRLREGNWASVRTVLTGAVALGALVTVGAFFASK
UniProt O60909: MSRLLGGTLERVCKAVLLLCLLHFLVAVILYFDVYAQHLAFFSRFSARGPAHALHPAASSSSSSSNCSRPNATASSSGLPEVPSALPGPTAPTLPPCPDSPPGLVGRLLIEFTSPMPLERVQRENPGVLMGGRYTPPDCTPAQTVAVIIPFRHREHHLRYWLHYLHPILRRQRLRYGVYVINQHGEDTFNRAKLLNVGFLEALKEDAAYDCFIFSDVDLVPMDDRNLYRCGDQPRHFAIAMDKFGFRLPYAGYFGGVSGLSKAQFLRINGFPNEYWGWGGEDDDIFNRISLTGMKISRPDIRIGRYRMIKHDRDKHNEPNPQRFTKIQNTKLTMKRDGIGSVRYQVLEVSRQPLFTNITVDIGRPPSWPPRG
UniProt Q9H3K6: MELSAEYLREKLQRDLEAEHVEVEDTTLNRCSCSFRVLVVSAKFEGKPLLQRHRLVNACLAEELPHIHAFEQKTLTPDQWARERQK
UniProt Q8WXE1: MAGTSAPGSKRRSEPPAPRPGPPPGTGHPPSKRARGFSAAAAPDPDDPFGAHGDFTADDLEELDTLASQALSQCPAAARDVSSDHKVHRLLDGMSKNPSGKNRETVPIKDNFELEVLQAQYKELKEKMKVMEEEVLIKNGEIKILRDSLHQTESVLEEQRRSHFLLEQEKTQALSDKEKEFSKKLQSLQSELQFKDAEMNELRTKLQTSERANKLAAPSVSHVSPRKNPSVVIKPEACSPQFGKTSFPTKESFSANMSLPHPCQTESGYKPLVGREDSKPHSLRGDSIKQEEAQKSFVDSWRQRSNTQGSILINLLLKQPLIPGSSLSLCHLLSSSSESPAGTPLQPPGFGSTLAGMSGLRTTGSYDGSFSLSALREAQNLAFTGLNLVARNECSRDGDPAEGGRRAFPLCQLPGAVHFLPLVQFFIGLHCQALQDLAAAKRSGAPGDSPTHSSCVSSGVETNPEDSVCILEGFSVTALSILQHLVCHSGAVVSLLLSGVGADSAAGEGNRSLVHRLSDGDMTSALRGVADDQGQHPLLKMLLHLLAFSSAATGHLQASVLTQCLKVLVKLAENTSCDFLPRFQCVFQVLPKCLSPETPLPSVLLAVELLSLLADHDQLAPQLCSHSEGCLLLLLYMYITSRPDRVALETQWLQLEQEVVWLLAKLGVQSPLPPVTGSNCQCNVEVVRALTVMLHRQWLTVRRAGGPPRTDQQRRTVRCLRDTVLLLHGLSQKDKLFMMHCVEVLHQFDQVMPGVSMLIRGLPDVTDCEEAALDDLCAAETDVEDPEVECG
UniProt O95861: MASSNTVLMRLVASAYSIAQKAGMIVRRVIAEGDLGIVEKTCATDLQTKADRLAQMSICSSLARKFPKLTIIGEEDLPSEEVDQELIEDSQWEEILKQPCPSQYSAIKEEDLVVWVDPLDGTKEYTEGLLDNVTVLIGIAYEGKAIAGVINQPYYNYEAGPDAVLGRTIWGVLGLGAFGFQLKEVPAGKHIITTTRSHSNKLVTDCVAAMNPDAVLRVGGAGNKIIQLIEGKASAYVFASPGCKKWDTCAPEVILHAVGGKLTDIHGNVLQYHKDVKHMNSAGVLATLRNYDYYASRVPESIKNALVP
UniProt Q7Z7M8: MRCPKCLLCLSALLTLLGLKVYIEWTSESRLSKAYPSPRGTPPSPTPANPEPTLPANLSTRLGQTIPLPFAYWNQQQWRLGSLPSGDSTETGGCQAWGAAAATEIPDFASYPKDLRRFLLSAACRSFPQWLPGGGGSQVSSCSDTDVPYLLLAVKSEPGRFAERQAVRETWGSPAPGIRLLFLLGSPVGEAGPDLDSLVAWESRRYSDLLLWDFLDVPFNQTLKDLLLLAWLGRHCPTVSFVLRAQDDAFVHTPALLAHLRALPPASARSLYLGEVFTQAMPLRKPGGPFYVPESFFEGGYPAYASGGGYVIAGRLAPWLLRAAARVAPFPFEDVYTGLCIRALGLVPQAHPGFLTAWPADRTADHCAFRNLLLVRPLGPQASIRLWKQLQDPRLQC
UniProt Q9NY97: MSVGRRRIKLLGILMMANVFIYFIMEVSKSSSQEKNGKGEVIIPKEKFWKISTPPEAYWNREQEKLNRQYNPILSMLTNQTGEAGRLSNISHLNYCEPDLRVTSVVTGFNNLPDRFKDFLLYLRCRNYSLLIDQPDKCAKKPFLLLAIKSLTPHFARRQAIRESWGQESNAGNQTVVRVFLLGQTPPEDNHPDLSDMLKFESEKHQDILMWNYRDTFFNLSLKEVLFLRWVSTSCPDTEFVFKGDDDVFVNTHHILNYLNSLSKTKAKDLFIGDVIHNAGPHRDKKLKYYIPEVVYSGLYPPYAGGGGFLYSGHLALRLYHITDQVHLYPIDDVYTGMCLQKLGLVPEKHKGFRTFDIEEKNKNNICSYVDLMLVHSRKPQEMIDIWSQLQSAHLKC
UniProt O75934: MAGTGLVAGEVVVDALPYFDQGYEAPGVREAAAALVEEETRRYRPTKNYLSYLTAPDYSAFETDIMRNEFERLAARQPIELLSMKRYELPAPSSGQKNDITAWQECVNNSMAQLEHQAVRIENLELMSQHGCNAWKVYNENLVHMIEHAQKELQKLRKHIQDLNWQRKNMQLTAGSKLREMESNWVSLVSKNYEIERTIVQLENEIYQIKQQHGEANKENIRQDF
UniProt P51572: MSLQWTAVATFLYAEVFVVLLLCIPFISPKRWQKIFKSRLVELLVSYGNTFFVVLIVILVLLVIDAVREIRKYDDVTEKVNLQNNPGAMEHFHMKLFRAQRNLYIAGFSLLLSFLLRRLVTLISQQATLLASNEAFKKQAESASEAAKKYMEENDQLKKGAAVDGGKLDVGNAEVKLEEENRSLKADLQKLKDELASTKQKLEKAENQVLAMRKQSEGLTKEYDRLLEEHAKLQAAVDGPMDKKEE
UniProt Q8NBF6: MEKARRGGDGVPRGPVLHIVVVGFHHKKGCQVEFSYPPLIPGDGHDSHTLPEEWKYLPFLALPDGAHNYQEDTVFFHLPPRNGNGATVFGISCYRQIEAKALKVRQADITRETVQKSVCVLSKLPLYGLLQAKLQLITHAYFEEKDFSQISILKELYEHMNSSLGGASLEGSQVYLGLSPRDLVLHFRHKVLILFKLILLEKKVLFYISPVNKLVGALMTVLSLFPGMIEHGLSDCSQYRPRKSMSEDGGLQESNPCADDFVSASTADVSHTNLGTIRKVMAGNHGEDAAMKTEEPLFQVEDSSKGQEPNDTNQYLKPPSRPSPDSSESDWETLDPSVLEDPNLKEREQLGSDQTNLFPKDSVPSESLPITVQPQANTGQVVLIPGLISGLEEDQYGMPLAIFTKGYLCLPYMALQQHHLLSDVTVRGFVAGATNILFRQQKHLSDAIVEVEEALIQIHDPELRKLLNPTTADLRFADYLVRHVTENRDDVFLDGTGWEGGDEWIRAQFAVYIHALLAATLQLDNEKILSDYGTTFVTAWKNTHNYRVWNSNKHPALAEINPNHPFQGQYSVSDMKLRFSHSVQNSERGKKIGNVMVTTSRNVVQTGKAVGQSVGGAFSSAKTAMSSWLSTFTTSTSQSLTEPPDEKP
UniProt P78537: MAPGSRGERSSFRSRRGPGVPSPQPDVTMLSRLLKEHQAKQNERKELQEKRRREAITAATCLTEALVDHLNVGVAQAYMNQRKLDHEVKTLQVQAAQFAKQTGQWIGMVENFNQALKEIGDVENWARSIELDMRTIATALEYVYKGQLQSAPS
UniProt P25311: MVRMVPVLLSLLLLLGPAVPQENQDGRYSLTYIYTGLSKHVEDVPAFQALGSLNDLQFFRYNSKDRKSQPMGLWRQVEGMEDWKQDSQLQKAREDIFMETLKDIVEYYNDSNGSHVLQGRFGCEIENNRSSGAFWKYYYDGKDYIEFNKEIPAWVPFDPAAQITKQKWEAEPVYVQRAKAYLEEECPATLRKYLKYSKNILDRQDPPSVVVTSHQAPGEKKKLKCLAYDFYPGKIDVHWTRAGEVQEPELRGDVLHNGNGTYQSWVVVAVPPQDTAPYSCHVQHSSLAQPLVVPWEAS
UniProt Q96GX2: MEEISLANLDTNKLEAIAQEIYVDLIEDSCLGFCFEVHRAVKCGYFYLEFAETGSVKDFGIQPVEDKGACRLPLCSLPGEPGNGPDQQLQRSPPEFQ

Key:
Assay in all cases: log2 fold change, soluble protein after heating vs DMSO (PISA); higher = thermal stabilisation; K562 cells, 10 uM, 30 min; active = over 0.2 and 3.5 SD of the protein, either way, in both replicates (recomputed)
[1] = compound: CS(=O)(=O)c1ccc(-c2cnc(N)c(C(=O)Nc3ccccc3)n2)cc1
In short: (§1)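 Soluble protein was defined as the supernatant after 21,000xg for 90 min. It came from K562 cells at 2×10^6 cells/mL given 10 μM compound for 30 min, heated in aliquots for 3 min across 48°C-58°C, pooled, and extracted in PBS with 0.5% NP-40 at 4°C, and was quantified by TMTpro 16plex LC-MS/MS with equalised channel sums. Thermal stability against control samples, from duplicates, is reported as log2 fold change.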

crizotinib = compound: C[C@@H](Oc1cc(-c2cnn(C3CCNCC3)c2)cnc1N)c1c(Cl)ccc(F)c1Cl [crizotinib]
In short: as §1

[2] = compound: C[C@@H]1COCCN1C2=NC(=NC(=C2)C3(CC3)S(=O)(=O)C)C4=C5C=CNC5=CC=C4
In short: as §1

[3] = compound: C[C@H](C1=CC=C(C=C1)C(=O)NC2=C3C=CNC3=NC=C2)N
In short: as §1

duvelisib = compound: C[C@H](Nc1ncnc2nc[nH]c12)c1cc2cccc(Cl)c2c(=O)n1-c1ccccc1 [duvelisib]
In short: as §1

gandotinib = compound: Cc1cc(Nc2cc(CN3CCOCC3)c3nc(C)c(Cc4ccc(Cl)cc4F)n3n2)n[nH]1 [gandotinib]
In short: as §1

tozasertib = compound: Cc1cc(Nc2cc(N3CCN(C)CC3)nc(Sc3ccc(NC(=O)C4CC4)cc3)n2)n[nH]1 [tozasertib]
In short: as §1

[4] = compound: Cc1cc(SCc2sc(-c3ccc(C(F)(F)F)cc3)nc2C)ccc1OCC(=O)O
In short: as §1

doramapimod = compound: Cc1ccc(-n2nc(C(C)(C)C)cc2NC(=O)Nc2ccc(OCCN3CCOCC3)c3ccccc23)cc1 [doramapimod]
In short: as §1

ispinesib = compound: Cc1ccc(C(=O)N(CCCN)[C@@H](c2nc3cc(Cl)ccc3c(=O)n2Cc2ccccc2)C(C)C)cc1 [ispinesib]
In short: as §1

Measured: log2 fold change

BICD2 isoform 2 (UniProt Q8TD16)
inactive: [1] 0.117 | crizotinib 0.136 | [2] -0.025 | [3] 0.012 | duvelisib 0.082 | gandotinib -0.017 | tozasertib 0.098 | [4] 0.05 | doramapimod 0.006 | ispinesib 0.027

BAG2 (UniProt O95816)
inactive: [1] -0.055 | crizotinib 0.05 | [2] -0.27 | [3] 0.255 | duvelisib -0.166 | gandotinib 0.03 | tozasertib 0.087 | [4] -0.025 | doramapimod 0.21 | ispinesib -0.154

BANF1 (UniProt O75531)
inactive: [1] 0.032 | crizotinib 0.159 | [2] 0.187 | [3] -0.097 | duvelisib 0.196 | gandotinib 0.072 | tozasertib 0.008 | [4] 0.059 | doramapimod 0.085 | ispinesib 0.221

BORCS6 (UniProt Q96GS4)
inactive: [1] -0.009 | crizotinib -0.146 | [2] 0.012 | [3] -0.077 | duvelisib 0.018 | gandotinib -0.035 | tozasertib 0.064 | [4] -0.011 | doramapimod 0.015 | ispinesib -0.094

BLOC1S5 (UniProt Q8TDH9)
inactive: [1] -0.005 | crizotinib -0.018 | [2] 0.092 | [3] -0.034 | duvelisib 0.076 | gandotinib 0.01 | tozasertib 0.045 | [4] -0.058 | doramapimod -0.001 | ispinesib 0.034

BNIP2 (UniProt J3KN59)
inactive: [1] -0.052 | crizotinib 0.207 | [2] 0.044 | [3] -0.084 | duvelisib 0.052 | gandotinib -0.124 | tozasertib 0.017 | [4] 0.038 | doramapimod -0.027 | ispinesib -0.183

BAK1 (UniProt Q16611)
inactive: [1] -0.035 | crizotinib 0.118 | [2] 0.015 | [3] -0.03 | duvelisib 0.19 | gandotinib 0.057 | tozasertib -0.081 | [4] -0.077 | doramapimod -0.009

B3GLCT (UniProt Q6Y288)
inactive: [1] 0.009 | crizotinib 0.023 | [2] 0.007 | [3] 0.03 | duvelisib -0.006 | gandotinib -0.063 | tozasertib -0.007 | [4] -0.019 | doramapimod 0.003 | ispinesib -0.048

BCL10 (UniProt O95999)
inactive: [1] -0.026 | crizotinib 0.014 | [2] 0.024 | [3] 0.13 | duvelisib -0.014 | gandotinib -0.084 | tozasertib 0.085 | [4] -0.006 | doramapimod -0.038 | ispinesib -0.074

B3GAT3 (UniProt O94766)
inactive: [1] 0.052 | crizotinib 0.026 | [2] 0.04 | [3] 0.001 | duvelisib 0.063 | gandotinib -0.027 | tozasertib 0.007 | [4] 0.018 | doramapimod 0.013 | ispinesib 0.042

BCL2L2 isoform 2 (UniProt Q92843)
inactive: [1] -0.065 | crizotinib 0.022 | [2] -0.035 | [3] 0.036 | duvelisib -0.025 | gandotinib -0.012 | tozasertib 0.046 | [4] 0.049 | doramapimod -0.015 | ispinesib 0.03

BCL9 (UniProt O00512)
inactive: [1] -0.02 | crizotinib 0.032 | [2] 0.061 | [3] 0.018 | duvelisib 0.094 | gandotinib 0.067 | tozasertib 0.03 | [4] -0.044 | doramapimod -0.1 | ispinesib 0.115

B4GALT2 isoform 3 (UniProt O60909)
inactive: [1] -0.024

BPGM (UniProt P07738)
inactive: [1] 0.065 | crizotinib 0.06 | [2] 0.025 | [3] -0.047 | duvelisib 0.042 | gandotinib 0.027 | tozasertib 0.003 | [4] -0.054 | doramapimod -0.011 | ispinesib 0.064

BOLA2 (UniProt Q9H3K6)
inactive: [1] -0.011 | crizotinib 0.143 | [2] 0.085 | [3] -0.055 | duvelisib 0.034 | gandotinib -0.032 | tozasertib 0.122 | [4] 0.056 | doramapimod -0.004 | ispinesib 0.092

ATRIP (UniProt Q8WXE1)
inactive: [1] 0.018 | crizotinib 0.007 | [2] 0.007 | [3] -0.017 | duvelisib 0.03 | gandotinib -0.07 | tozasertib 0.057 | [4] 0.033 | doramapimod 0.063 | ispinesib -0.043

BCAT2 (UniProt O15382)
inactive: [1] 0.006 | crizotinib 0.029 | [2] -0.009 | [3] 0.001 | duvelisib -0.016 | gandotinib -0.024 | tozasertib -0.008 | [4] -0.045 | doramapimod 0.009 | ispinesib 0.012

BPNT1 (UniProt O95861)
inactive: [1] 0.062 | crizotinib 0.078 | [2] 0.007 | [3] -0.067 | duvelisib -0.014 | gandotinib 0.039 | tozasertib 0.016 | [4] -0.008 | doramapimod -0.022 | ispinesib 0.116

BAIAP2L1 (UniProt Q9UHR4)
inactive: [1] 0.012 | crizotinib 0.023 | [2] 0.007 | [3] -0.052 | duvelisib 0.042 | gandotinib -0.013 | tozasertib -0.018 | [4] -0.025 | doramapimod -0.001 | ispinesib -0.025

B3GNT8 (UniProt Q7Z7M8)
inactive: [1] -0.139

B3GNT2 (UniProt Q9NY97)
inactive: [1] 0.032 | crizotinib -0.007 | [2] 0.046 | [3] -0.038 | duvelisib -0.034 | gandotinib -0.022 | tozasertib 0.017 | [4] 0 | doramapimod 0.105 | ispinesib -0.032

Reprinted at random: 2 records from the list.
BNIP2 (UniProt J3KN59)
inactive: [1] -0.052 | crizotinib 0.207 | [2] 0.044 | [3] -0.084 | duvelisib 0.052 | gandotinib -0.124 | tozasertib 0.017 | [4] 0.038 | doramapimod -0.027 | ispinesib -0.183

BICD2 isoform 2 (UniProt Q8TD16)
inactive: [1] 0.117 | crizotinib 0.136 | [2] -0.025 | [3] 0.012 | duvelisib 0.082 | gandotinib -0.017 | tozasertib 0.098 | [4] 0.05 | doramapimod 0.006 | ispinesib 0.027

Following part:

BCAS2 (UniProt O75934)
inactive: [1] 0.001 | crizotinib 0.134 | [2] 0.087 | [3] -0.075 | duvelisib -0.07 | gandotinib 0.121 | tozasertib 0.133 | [4] 0.075 | doramapimod 0.022 | ispinesib 0.116

BCKDK (UniProt O14874)
inactive: [1] -0.011 | crizotinib -0.046 | [2] 0.007 | [3] 0.106 | duvelisib 0.025 | gandotinib 0.036 | tozasertib 0.004 | [4] -0.033 | doramapimod 0.036 | ispinesib -0.033

BCL2L13 (UniProt Q9BXK5)
inactive: [1] 0.026 | crizotinib -0.035 | [2] 0.051 | [3] -0.109 | duvelisib 0.021 | gandotinib 0.016 | tozasertib 0.019 | [4] -0.018 | doramapimod 0.014 | ispinesib 0.013

BNIP1 (UniProt Q12981)
inactive: [1] 0 | crizotinib -0.036 | [2] 0.042 | [3] -0.027 | duvelisib 0.056 | gandotinib -0.012 | tozasertib -0.008 | [4] 0.016 | doramapimod -0.02 | ispinesib -0.114

BAHCC1 (UniProt Q9P281)
inactive: [1] 0.203 | crizotinib -0.004 | [2] 0.283 | [3] 0.244 | duvelisib 0.204 | gandotinib -0.158 | tozasertib -0.096 | [4] -0.158 | doramapimod 0.097 | ispinesib -0.19

BCAP31 isoform 2 (UniProt P51572)
inactive: [1] -0.022 | crizotinib 0.087 | [2] 0.002 | [3] -0.025 | duvelisib -0.016 | gandotinib -0.041 | tozasertib -0.009 | [4] -0.03 | doramapimod -0.01 | ispinesib 0.002

AVL9 (UniProt Q8NBF6)
inactive: [1] 0 | crizotinib -0.181 | [2] 0.07 | [3] -0.061 | duvelisib 0.054 | gandotinib -0.08 | tozasertib -0.011 | [4] 0.013 | doramapimod -0.023 | ispinesib -0.082

BLOC1S1 (UniProt P78537)
inactive: [1] -0.104 | crizotinib 0.032 | [2] 0.06 | [3] -0.034 | duvelisib 0.119 | gandotinib -0.149 | tozasertib -0.013 | [4] -0.03 | doramapimod 0.055 | ispinesib 0.109

AZGP1 (UniProt P25311)
inactive: [1] -0.014 | crizotinib -0.001 | [2] 0.119 | [3] -0.081 | duvelisib -0.228 | gandotinib -0.396 | tozasertib 0.109 | [4] -0.353 | doramapimod -0.381 | ispinesib 0.212

ATXN7L3B (UniProt Q96GX2)
inactive: [1] 0.005 | crizotinib 0.049 | [2] 0.102 | [3] -0.044 | duvelisib 0.231 | gandotinib 0.019 | tozasertib 0.098 | [4] -0.042 | doramapimod 0.037 | ispinesib 0.06
